Some of the results follow.
Target: OsWRKY34 (Oryza sativa, UniProt Q0JBA9 1-250)
Experiment: protein-binding microarray (RPBM); PBS, 2% BSA, 51.3 ng/ul salmon testes DNA, 50 uM zinc acetate, 200 nM TF, 25 C, 1 h; high values mean tight binding
Conditions: protein: recombinant; tags: N-terminal polyhistidine and DsRed monomer fusion (pET32a); label: CyDye5-dUTP incorporated in the synthesized complementary strand; 3' TTTTT single-stranded linker to array surface; dsDNA, one strand shown
Summary of the method: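 For the binding signal, per-feature fluorescence intensity was read in arbitrary units on an Axon 4000B scanner. Before scanning, a 2% BSA-blocked custom Agilent array made double-stranded with Cy5-dUTP was washed after 1 h at 25 °C with 200 nM protein and 50 µM zinc acetate. The proteins were Ni–NTA-purified transcription factors with N-terminal polyhistidine and DsRed fusions, expressed in E. coli BL21-CodonPlus.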

Chains of the proteins cited; added tags and fusions are not shown.
UniProt Q0JBA9, entry or part of it: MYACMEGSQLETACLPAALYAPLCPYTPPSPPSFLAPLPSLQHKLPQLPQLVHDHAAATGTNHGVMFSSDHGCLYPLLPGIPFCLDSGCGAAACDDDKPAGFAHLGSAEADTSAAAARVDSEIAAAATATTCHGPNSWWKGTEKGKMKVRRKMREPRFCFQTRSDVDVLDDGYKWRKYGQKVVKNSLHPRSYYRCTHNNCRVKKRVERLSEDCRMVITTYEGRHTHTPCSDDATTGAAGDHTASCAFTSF

| Sequence | binding signal |
| --- | --- |
| CGAACTCCACTGTGGATTGGCTTTGATCATGTTCTCATACCGGAGTCACCTAGTGCAG | 8110 fluorescence intensity (a.u.) |
| CCGTCGTGCTCGTGCCAAGCCAACTCCTCGTCTTCGGCTCCGGAGTCACCTAGTGCAG | 8300 fluorescence intensity (a.u.) |
| ACATATATAGCGCCCTCACTTTCAAAAGGCCGGCGTTTCTCGGAGTCACCTAGTGCAG | 8080 fluorescence intensity (a.u.) |
| AAGCTATAGCTGTCTCTTTCCTTGCATCTCCTCTCCTCTTCGGAGTCACCTAGTGCAG | 8210 fluorescence intensity (a.u.) |
| GTATCCTTGGCGCCGTTAAAACCTCTAGTACCTCTCTGTCCGGAGTCACCTAGTGCAG | 8260 fluorescence intensity (a.u.) |
| ATGTAGATGTGGTCATGTGGGTGCTATCTGTGTGGGTGATCGGAGTCACCTAGTGCAG | 9360 fluorescence intensity (a.u.) |
| ATCCCTTTCATCTCTCATCTACCTCGCCATGGTCGCACACCGGAGTCACCTAGTGCAG | 9140 fluorescence intensity (a.u.) |
| GTTCAAACTGATGATCCCGTTTCATATGATTCATGACATGCGGAGTCACCTAGTGCAG | 8290 fluorescence intensity (a.u.) |
| ATTTATAGAGGTTGGGTGTGCATGTGTGGTGAGCATATTTCGGAGTCACCTAGTGCAG | 8820 fluorescence intensity (a.u.) |
| TTGACCACCTCCAGCGCCGTGCACACCTCCACCTGCGCGTCGGAGTCACCTAGTGCAG | 8750 fluorescence intensity (a.u.) |
| TATGTCGACCGTATGCGTATACGTATACGTGTATTCCTCTCGGAGTCACCTAGTGCAG | 8030 fluorescence intensity (a.u.) |
| TTCAATCCTTGTGTCAGACATCCCATCATGTTCACAACTTCGGAGTCACCTAGTGCAG | 9190 fluorescence intensity (a.u.) |
| CAAAGAGATAAGAATTGGGCGTACACGTGGGCGGGGCAGACGGAGTCACCTAGTGCAG | 8180 fluorescence intensity (a.u.) |
| TTACACCAATCTGTCCCATTCACTTGTAGACTTGCTTTGCCGGAGTCACCTAGTGCAG | 8260 fluorescence intensity (a.u.) |
| ACACATGCCCAGATAGTTTTCTTTGTCATCTCATTCTGCACGGAGTCACCTAGTGCAG | 9360 fluorescence intensity (a.u.) |
| CCTTTGTCTCCAGCCTCCCTCCTACTTCCCTAACGCTGAACGGAGTCACCTAGTGCAG | 8270 fluorescence intensity (a.u.) |
| CCATTCCCTTCTCGTCAGGTCACGCGTCCGAAACCGACCACGGAGTCACCTAGTGCAG | 8060 fluorescence intensity (a.u.) |
| ACCAACTGCCACCGCCGCCGTCGCCGACTGCTCCCATCCTCGGAGTCACCTAGTGCAG | 9010 fluorescence intensity (a.u.) |
| GCTATATTTTTTTTATAAACTTGATCAAATCCAAAGTAGTCGGAGTCACCTAGTGCAG | 9560 fluorescence intensity (a.u.) |
| ATCTGAATGATCTGACCTTAGTTTCTGCTAGTCCTGAGCTCGGAGTCACCTAGTGCAG | 11200 fluorescence intensity (a.u.) |
| ACGGTCAGATTCCTCACCGAATCCGCACTATCCGCCACTACGGAGTCACCTAGTGCAG | 9080 fluorescence intensity (a.u.) |

| Sequence | binding signal |
| --- | --- |
| CCCATACATATTTTACATACAGTCCTTTAATTAATTTATTCGGAGTCACCTAGTGCAG | 8560 fluorescence intensity (a.u.) |
| TGCTGTGTTTGGTCATATATAATATACTACCCCTACCCTACGGAGTCACCTAGTGCAG | 9490 fluorescence intensity (a.u.) |
| ATCTGCTTGTTTTCTTGTACAGTTTGTTCTGTATGTGAGCCGGAGTCACCTAGTGCAG | 13000 fluorescence intensity (a.u.) |
| ACATCGTTCCAATTTCAACCAGACTTTTATTTTTGACGTGCGGAGTCACCTAGTGCAG | 8460 fluorescence intensity (a.u.) |
| AACTTTTGCTTCCGTTTTAATAGATGCGACTATATTTCACCGGAGTCACCTAGTGCAG | 8740 fluorescence intensity (a.u.) |
| TAGTATTTCTATTTGGACTCTAAACTCATCTTTCAATATTCGGAGTCACCTAGTGCAG | 8500 fluorescence intensity (a.u.) |
| AATTCTTTTGTCGTATTATCCTATCTACTTCCACTTATAACGGAGTCACCTAGTGCAG | 8560 fluorescence intensity (a.u.) |
| TCTTGCGATGTCCCCACCTGTCAGTCTCCGCTCGCTCTCCCGGAGTCACCTAGTGCAG | 9920 fluorescence intensity (a.u.) |
| CAGATGGCTTTTTAGTTTTTACACCGTGTCTGATACTAAACGGAGTCACCTAGTGCAG | 8040 fluorescence intensity (a.u.) |
| CCTCCGCCTCGCGCCGCCACCTCCGCCTCGCGCCGTTGTCCGGAGTCACCTAGTGCAG | 11000 fluorescence intensity (a.u.) |
| GCGCGCCCCATCATCTAGTTATGCTAATTACGCGCGTCTTCGGAGTCACCTAGTGCAG | 13500 fluorescence intensity (a.u.) |
| TTTATCTTTTCGATGTGTGTTTATAGTTGGATTACAGTATCGGAGTCACCTAGTGCAG | 8110 fluorescence intensity (a.u.) |
| TGCTTTAAGCCTATATTTAATATTTCATACATGTGTTCAACGGAGTCACCTAGTGCAG | 8220 fluorescence intensity (a.u.) |
| TGCTGCTCTCGCGCGCTGTGCGGTTGTCACACACACTTTTCGGAGTCACCTAGTGCAG | 10300 fluorescence intensity (a.u.) |
| TTTCCTAAGCCTATCTTTCTCTTCTTGATCTCTGCTGAATCGGAGTCACCTAGTGCAG | 8620 fluorescence intensity (a.u.) |
| AATTGCCACACCCTTTTTAAAAAACCTGATATGTGTCCATCGGAGTCACCTAGTGCAG | 8460 fluorescence intensity (a.u.) |
| GCTAGAGAGAGATCATGTCGGTGGCGGCGGAGGGGAAGGACGGAGTCACCTAGTGCAG | 10700 fluorescence intensity (a.u.) |
| CGTTCATTTTGTTTCAATTGACCATATAAGACTTTTTCTCCGGAGTCACCTAGTGCAG | 8160 fluorescence intensity (a.u.) |
| TCTATCTTCTCTTCCTTCCTTTTTTGCGTGGAAGGCATGTCGGAGTCACCTAGTGCAG | 10400 fluorescence intensity (a.u.) |
| ACTCTGGATGATTTTTTTTATCTCGTACTCTCATCTCGGACGGAGTCACCTAGTGCAG | 12300 fluorescence intensity (a.u.) |
| AAAATGGTTGGCTACTATGGGCTGGGATCGGTTTCTTTGCCGGAGTCACCTAGTGCAG | 8920 fluorescence intensity (a.u.) |

Fetched one by one from above:

| Sequence | binding signal |
| --- | --- |
| TCTATCTTCTCTTCCTTCCTTTTTTGCGTGGAAGGCATGTCGGAGTCACCTAGTGCAG | 10400 fluorescence intensity (a.u.) |
| CCCATACATATTTTACATACAGTCCTTTAATTAATTTATTCGGAGTCACCTAGTGCAG | 8560 fluorescence intensity (a.u.) |
| TAGTATTTCTATTTGGACTCTAAACTCATCTTTCAATATTCGGAGTCACCTAGTGCAG | 8500 fluorescence intensity (a.u.) |
| CCGTCGTGCTCGTGCCAAGCCAACTCCTCGTCTTCGGCTCCGGAGTCACCTAGTGCAG | 8300 fluorescence intensity (a.u.) |
| ATCTGAATGATCTGACCTTAGTTTCTGCTAGTCCTGAGCTCGGAGTCACCTAGTGCAG | 11200 fluorescence intensity (a.u.) |
| ATCCCTTTCATCTCTCATCTACCTCGCCATGGTCGCACACCGGAGTCACCTAGTGCAG | 9140 fluorescence intensity (a.u.) |
| ACTCTGGATGATTTTTTTTATCTCGTACTCTCATCTCGGACGGAGTCACCTAGTGCAG | 12300 fluorescence intensity (a.u.) |

More records:

| Sequence | binding signal |
| --- | --- |
| CCTTCCCATTCGACCGCCGCCCGCCCTGTCCGCGCCTGACCGGAGTCACCTAGTGCAG | 11300 fluorescence intensity (a.u.) |
| CTTCTGTTTCTTGGCCACATCGAGTAAAAATGTCCTCGTCCGGAGTCACCTAGTGCAG | 11900 fluorescence intensity (a.u.) |
| GCCTTACTCACGGTGATTAGTTTAACCCCATCCTTTGGTTCGGAGTCACCTAGTGCAG | 8580 fluorescence intensity (a.u.) |
| CGCCACTATGTGGATGTGTTCTTGCTGTGTTATCTAGATACGGAGTCACCTAGTGCAG | 9020 fluorescence intensity (a.u.) |
| GGATCTTTCATCGTAGTTTATTTTTCAGCCTTTGTTTTTACGGAGTCACCTAGTGCAG | 12800 fluorescence intensity (a.u.) |
| CTTATGCTGCTTCTGTTGGTTTTGAAAGATTTCGAATTCACGGAGTCACCTAGTGCAG | 9570 fluorescence intensity (a.u.) |
| GTGTTTTGCAAGGTTGTTTCTTTACCTTATCTATATACATCGGAGTCACCTAGTGCAG | 9790 fluorescence intensity (a.u.) |
| GCGCCTCTACACCGCGCTCGTCATCCTTCCGCCGCCGCTCCGGAGTCACCTAGTGCAG | 11300 fluorescence intensity (a.u.) |
| GGTGCAGGAGGAGGAGGGGAAAGAGCGGCGGGGAGAAGTTCGGAGTCACCTAGTGCAG | 10700 fluorescence intensity (a.u.) |
| TCCGTCTTTTTTAGTAACTTCCATTTTTTATTGGAATGGTCGGAGTCACCTAGTGCAG | 8340 fluorescence intensity (a.u.) |
| CATGGCGATCTACTAGGCAAATCCATCGTCCCTTGTGAATCGGAGTCACCTAGTGCAG | 8230 fluorescence intensity (a.u.) |
| GAATTTTGATACATGTTCCACCATTCATCTTTTTTATTTTCGGAGTCACCTAGTGCAG | 9790 fluorescence intensity (a.u.) |
| GCAGCTCATACACATAGCTAGCTCAGCTGAGACACACACACGGAGTCACCTAGTGCAG | 8440 fluorescence intensity (a.u.) |
| GTGATTTGGTGATTGTATGGGGACTACTATTTAACGCACTCGGAGTCACCTAGTGCAG | 10800 fluorescence intensity (a.u.) |
| AGAGCAGAGAAGTGCGATTAGGCATGTGGTCCAAAATCTTCGGAGTCACCTAGTGCAG | 12900 fluorescence intensity (a.u.) |
| AACCATGTCACTGCTCTAAACTCGCCTTTTGTTGACTTGGCGGAGTCACCTAGTGCAG | 10600 fluorescence intensity (a.u.) |
| CACCGCTGGCCGCCACTCCATTCCTCAGCTTTGCTTCCGGCGGAGTCACCTAGTGCAG | 10000 fluorescence intensity (a.u.) |
| CTGAACATGTTGTTCAGTTGGCCTCGTTTTCTCACCTTTGCGGAGTCACCTAGTGCAG | 9320 fluorescence intensity (a.u.) |
| GAATTAAGTCTATTTTCGATCCTTGTAGTATTTTTATTGACGGAGTCACCTAGTGCAG | 9450 fluorescence intensity (a.u.) |
| CTTGTGTCTCATCTCCGCCGCCCCTCGCCTCCTCGTCCTCCGGAGTCACCTAGTGCAG | 11000 fluorescence intensity (a.u.) |
| CTTAGGGTCGGGAAGGGGAGAGGCGGTGGCGGGCGGCTGACGGAGTCACCTAGTGCAG | 13400 fluorescence intensity (a.u.) |

| Sequence | binding signal |
| --- | --- |
| CTGTTTGACCACAGCAAAGGACCGTGATCCCCATCATCCACGGAGTCACCTAGTGCAG | 10200 fluorescence intensity (a.u.) |
| GGTGGCTGGAGATGATAGAGATGGGCACGTTTACTTCCTCCGGAGTCACCTAGTGCAG | 8360 fluorescence intensity (a.u.) |
| TTTTACGTCGTCCGATCCGTCCATTGCTCCATTGCTGACGCGGAGTCACCTAGTGCAG | 8170 fluorescence intensity (a.u.) |
| GCAAAGCTGTTGCCCGAGCCATGGCCACCCACAAGCTCGACGGAGTCACCTAGTGCAG | 8080 fluorescence intensity (a.u.) |
| TCCTGAGATATTAGGGTTTGGGTAATTTGGGTACAGATAGCGGAGTCACCTAGTGCAG | 9070 fluorescence intensity (a.u.) |
| ACCGCCGGCGCCGGCTCCTCCACCCCGTCGCCCGGTTCGACGGAGTCACCTAGTGCAG | 8270 fluorescence intensity (a.u.) |
| AATCTCTTCTTGATTACTCCCTCCGTTTTCTAAATATTTACGGAGTCACCTAGTGCAG | 9000 fluorescence intensity (a.u.) |
| GGAATGTAGTCTACTCATATGCTTTCTGTGGTGCATTCTACGGAGTCACCTAGTGCAG | 9090 fluorescence intensity (a.u.) |
| GCATGATCTGTGATGCATCTTTTGTTCCAAATTGTAGACTCGGAGTCACCTAGTGCAG | 9280 fluorescence intensity (a.u.) |
| GCAACGTGACTCCACACTCTTTTGTTCGTTACCCATTCCACGGAGTCACCTAGTGCAG | 15900 fluorescence intensity (a.u.) |
| CATCGTTAGTACAGCAATCTTTCAGGTGAGTTTTTTTTTCCGGAGTCACCTAGTGCAG | 9710 fluorescence intensity (a.u.) |
| GTTTACCACGGTGTGCTTTGCTCTCTTGCCTCTCCTGTCTCGGAGTCACCTAGTGCAG | 9160 fluorescence intensity (a.u.) |
| TGCTTACATCATTCTGCGTTTATGGGTTCTCACTTTAGCTCGGAGTCACCTAGTGCAG | 9870 fluorescence intensity (a.u.) |
| CTTCTTCGCCGTCTCCGATCTGGAACTTCACCGCCGCCGCCGGAGTCACCTAGTGCAG | 10100 fluorescence intensity (a.u.) |
| AATGCTCGAAACAGGTTCCTACCTACTACTTTTGTTTCAGCGGAGTCACCTAGTGCAG | 8020 fluorescence intensity (a.u.) |
| TCTTCCATCTCCTAATCTTCCCCTAACAAGTCCTAGCTAACGGAGTCACCTAGTGCAG | 8410 fluorescence intensity (a.u.) |
| GGTTGTCGACAAGGTACTCGTTGGTTGTCCAGAATATTTTCGGAGTCACCTAGTGCAG | 8120 fluorescence intensity (a.u.) |
| TCATCTTCCCACTTATGTTTATATTATATTTATTAATCATCGGAGTCACCTAGTGCAG | 8400 fluorescence intensity (a.u.) |
| GGTGGGTGGTGTCCGGGGTGGCGTTCTGGTGGACGGCGTTCGGAGTCACCTAGTGCAG | 14200 fluorescence intensity (a.u.) |
| CCTTCTTGATGACTTCATGTTCTTTTCTAAGTCATGTTAGCGGAGTCACCTAGTGCAG | 12200 fluorescence intensity (a.u.) |
| GGGAGACGCGGGTATTTGAACGCGCGGAGGGGAGGGGAGACGGAGTCACCTAGTGCAG | 11500 fluorescence intensity (a.u.) |
